Experimental data as given in paper PMC7819943, “Rice protein-binding microarrays: a tool to detect cis-acting elements near promoter regions in rice”.
The list shows a part of the results.

What follows are sequences tested against T1, OsSMF1 (Oryza sativa, UniProt Q6ZLB0 1-436) (assay: protein-binding microarray (RPBM); PBS, 2% BSA, 51.3 ng/ul salmon testes DNA, 50 uM zinc acetate, 200 nM TF, 25 C, 1 h; high values mean tight binding). Settings: protein: recombinant; tags: N-terminal polyhistidine and DsRed monomer fusion (pET32a); chain copies: 2; label: CyDye5-dUTP incorporated in the synthesized complementary strand; 3' TTTTT single-stranded linker to array surface; dsDNA, one strand shown.
T1 sequence: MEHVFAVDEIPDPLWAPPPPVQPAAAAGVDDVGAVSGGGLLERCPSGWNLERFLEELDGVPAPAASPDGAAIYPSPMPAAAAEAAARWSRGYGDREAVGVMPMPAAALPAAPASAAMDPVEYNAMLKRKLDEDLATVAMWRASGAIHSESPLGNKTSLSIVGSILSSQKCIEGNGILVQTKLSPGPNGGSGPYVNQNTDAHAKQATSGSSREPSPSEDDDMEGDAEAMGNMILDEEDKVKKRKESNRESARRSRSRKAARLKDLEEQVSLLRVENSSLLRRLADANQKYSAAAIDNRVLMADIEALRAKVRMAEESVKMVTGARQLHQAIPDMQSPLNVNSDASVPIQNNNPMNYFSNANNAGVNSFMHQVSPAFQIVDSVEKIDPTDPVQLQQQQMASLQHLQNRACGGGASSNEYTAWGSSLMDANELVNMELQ
Outline: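 The binding signal is fluorescence intensity per array feature (arbitrary units). Readings came from an Axon 4000B scanner after a washed, 2% BSA-blocked, double-stranded custom Agilent array had been incubated for 1 h at 25 °C with 200 nM protein and 50 µM zinc acetate. The protein was a Ni–NTA-purified transcription factor fused N-terminally to polyhistidine and DsRed, expressed in E. coli BL21-CodonPlus.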

Row | Sequence | binding signal
1 | CGTGCTGACGTGCAGGTTCGCCTTTTCTCCATCCGCCTCTCGGAGTCACCTAGTGCAG | 18200 fluorescence intensity (a.u.)
2 | TTCTCCATGTGGGCGCCCATCACCGTGAGCGCCAGTCTCTCGGAGTCACCTAGTGCAG | 3170 fluorescence intensity (a.u.)
3 | TCGATTCCAGCTGTGGCACCCATAGAGAAATGAGCCCGTCCGGAGTCACCTAGTGCAG | 56300 fluorescence intensity (a.u.)
4 | GAATGAAAATTGAGGTCAGCAATGAGCGATGTGTATCCCCCGGAGTCACCTAGTGCAG | 3360 fluorescence intensity (a.u.)
5 | TCCTCAAGATATCTCCACGTATAACTAATCTTGCATATCCCGGAGTCACCTAGTGCAG | 6440 fluorescence intensity (a.u.)
6 | TCCCACATTAAATTTACTCATTAGTTGTTAGGAATCGACACGGAGTCACCTAGTGCAG | 20600 fluorescence intensity (a.u.)
7 | CTCCCGCTCTTTAAAACTGCCACCTCCGTTAACGCCACCACGGAGTCACCTAGTGCAG | 4250 fluorescence intensity (a.u.)
8 | TGTACGCCAAGCGCGCGTTCGTGCACTGGTACGTGGGCGACGGAGTCACCTAGTGCAG | 3490 fluorescence intensity (a.u.)
9 | AATCTTTTAAATCTAATTAGTCCATGATTAGTCATAAGCGCGGAGTCACCTAGTGCAG | 3640 fluorescence intensity (a.u.)
10 | GAGTTGTTGTGTCTGACGTAAGCACTGAAGTGGATATGATCGGAGTCACCTAGTGCAG | 10600 fluorescence intensity (a.u.)
11 | GCGGTGGATAGGAGGGCCGAGGGCCGATGACTTGGACACGCGGAGTCACCTAGTGCAG | 4350 fluorescence intensity (a.u.)
12 | TGCAAACTTCGAAACTCCAAATACCGCGCCACGCGGCAGCCGGAGTCACCTAGTGCAG | 8400 fluorescence intensity (a.u.)
13 | CTAAACATGATATCACCAACTTCATCCTACCAAAATTTGGCGGAGTCACCTAGTGCAG | 3950 fluorescence intensity (a.u.)
14 | AGATGCGGCGCGGAGGTTGCGTGGCGGCACTGGTGCTAGCCGGAGTCACCTAGTGCAG | 4160 fluorescence intensity (a.u.)
15 | CCATCCTGCCAGGACGCAGAAGCGCAGGGTCGAGCCTCTCCGGAGTCACCTAGTGCAG | 3340 fluorescence intensity (a.u.)
16 | AAGTAGCATCACCTTTCAGTAATGTTGTCTCCACTCAGCACGGAGTCACCTAGTGCAG | 4840 fluorescence intensity (a.u.)
17 | CATTGCGCGCTAAAGGAGCACGTCACCTACACTAATCATTCGGAGTCACCTAGTGCAG | 3780 fluorescence intensity (a.u.)
18 | AATGCACTATTCATACTATAGCAAAATCCGACGTGGCACTCGGAGTCACCTAGTGCAG | 22800 fluorescence intensity (a.u.)
19 | CCCAACTGTTCTTTCCGTCACGTCACGCACAAGTCAAAATCGGAGTCACCTAGTGCAG | 5230 fluorescence intensity (a.u.)
20 | GGCACTATAGATGTTTGGTTTCGCTGACGTGGCATTCTAGCGGAGTCACCTAGTGCAG | 49000 fluorescence intensity (a.u.)
21 | CTACAACACTAGACTACGGGGAGCACGAGCTACACGACTGCGGAGTCACCTAGTGCAG | 5030 fluorescence intensity (a.u.)

Retrieved one by one from the entries so far, four records:
Row | Sequence | binding signal
8 | TGTACGCCAAGCGCGCGTTCGTGCACTGGTACGTGGGCGACGGAGTCACCTAGTGCAG | 3490 fluorescence intensity (a.u.)
1 | CGTGCTGACGTGCAGGTTCGCCTTTTCTCCATCCGCCTCTCGGAGTCACCTAGTGCAG | 18200 fluorescence intensity (a.u.)
11 | GCGGTGGATAGGAGGGCCGAGGGCCGATGACTTGGACACGCGGAGTCACCTAGTGCAG | 4350 fluorescence intensity (a.u.)
17 | CATTGCGCGCTAAAGGAGCACGTCACCTACACTAATCATTCGGAGTCACCTAGTGCAG | 3780 fluorescence intensity (a.u.)

The list goes on.

Row | Sequence | binding signal
22 | TGCCAGGGTGAATACGTGTTGTTTATTGGCTAGCTAATAACGGAGTCACCTAGTGCAG | 3400 fluorescence intensity (a.u.)
23 | CTCTTTTCCCCATCTCACATACTGTGCCTTGCCTCCATAACGGAGTCACCTAGTGCAG | 65200 fluorescence intensity (a.u.)
24 | AGGTCCCGCGACACCGGCGTGTGGCCGCTCGCCGTCTGATCGGAGTCACCTAGTGCAG | 12500 fluorescence intensity (a.u.)
25 | AACTACAAACCACGTCGATGGCAATACAAGACCGGTGTTCCGGAGTCACCTAGTGCAG | 4340 fluorescence intensity (a.u.)
26 | GCATGCATCCGTCAGCACGCAGCATGCTGCTCCCGTATTACGGAGTCACCTAGTGCAG | 4990 fluorescence intensity (a.u.)
27 | TTCAACGGCATGATATCGATCTAGGGGAGATGATGTCAAACGGAGTCACCTAGTGCAG | 31500 fluorescence intensity (a.u.)
28 | TCTCTGCTCTCGCACAGGCGGCGGCGTGCGTGGCCGGAGGCGGAGTCACCTAGTGCAG | 3470 fluorescence intensity (a.u.)
29 | TGTATGTATTAACTGCCGGTGGCCACCGTGGCCGGCCGTGCGGAGTCACCTAGTGCAG | 3820 fluorescence intensity (a.u.)
30 | GGATTAAACTTATTGATGACATACCGGTGGAGTCAATGGACGGAGTCACCTAGTGCAG | 5070 fluorescence intensity (a.u.)
31 | GAAGATGACGACGAGTGAGACTGTGCTGGGGTTCATACGTCGGAGTCACCTAGTGCAG | 3660 fluorescence intensity (a.u.)
32 | GATTGAAACATCAAGGACTAAACTGAGTCTCAGATGAAACCGGAGTCACCTAGTGCAG | 58100 fluorescence intensity (a.u.)
33 | TATGTGAATAACCAGGAATATTGTTTGACAAGAGAAGAGGCGGAGTCACCTAGTGCAG | 18000 fluorescence intensity (a.u.)
34 | TTCTACCACTTCAACTCATGCCTGATGCCACCGTGTGTGCCGGAGTCACCTAGTGCAG | 3800 fluorescence intensity (a.u.)
35 | AGGGCACTGTCATCGGGGTCAGGGTTAGGGTCACCGCCACCGGAGTCACCTAGTGCAG | 3520 fluorescence intensity (a.u.)
36 | TGGGACTCACCCGCTGACTCAGCTAGTCAATCGTGGTCATCGGAGTCACCTAGTGCAG | 15400 fluorescence intensity (a.u.)
37 | GATATGTGTGGGTGGGTTCCTGGATCCGGCGCAGAGGTGTCGGAGTCACCTAGTGCAG | 4060 fluorescence intensity (a.u.)
38 | ACTGTCGCACACATTGAGCAGTGTGACTCAGTGAGCCACCCGGAGTCACCTAGTGCAG | 4010 fluorescence intensity (a.u.)
39 | TGTTTGGCTCGGGTTCCAAGAAAGTCCAGCCTGCCATGATCGGAGTCACCTAGTGCAG | 23300 fluorescence intensity (a.u.)
40 | GCCATTATGTAGCCACGTGTCATCCAAATTTGCAACTAGGCGGAGTCACCTAGTGCAG | 16200 fluorescence intensity (a.u.)
41 | ATATCTACCTCATTGTTTGAGGCATGACCTGTAATTTGACCGGAGTCACCTAGTGCAG | 3380 fluorescence intensity (a.u.)
42 | CTATGACTTTAGTGGCTAGAGTCAGCCGGATCAACCTGTTCGGAGTCACCTAGTGCAG | 24900 fluorescence intensity (a.u.)
